# Results as given in patent publication US7994185B2, “Benzene sulfonamide thiazole and oxazole compounds” (Glaxo Smith Kline LLC, priority 2008, dated 2011).
# Some entries share one result that the patent states for a list of compounds.
# Tested on: Human colon tumor cells (Colo205)
# Assay: Cell growth inhibition assay (CellTiter-Glo), Colo205
# Assay type: cell-based
# Conditions: Table 2b; later runs, average for the one or more runs, categorized
# Protocol: Human colon tumor cells (Colo205) were cultured in RPMI (Mediatech 50-020-PB) containing 10% FBS and 1% penicillin-streptomycin.
# The next day, compounds were diluted as follow: For 96-well assays, 13.5 μL of compound in DMSO were diluted using nine (9) serial 1:3 dilutions of 4.5 μL in 9 μL of DMSO. Medium (270 μL/well of RPMI with 10% FBS and 1% penicillin-streptomycin) was added to the plates. Aliquots (7 μL) were added to cells in the final assay giving a final DMSO concentration of 0.2%. For 384-well assays, 15 μL of compound in DMSO were diluted using nine (9) serial 1:3 dilutions of 5 μL in 10 μL of DMSO, followed by a further dilution of 5 μL of compound with 95 μL of medium, of which 2 μL were added to cells in the final assay giving a final DMSO concentration of 0.2%. Cells were incubated at 37° C., 5% CO2 for 3 days.
# Total ATP was measured (as a surrogate estimate of cell number) using CellTiter-Glo® reagent (Promega G7571). Briefly, plates were removed from the incubator and allowed to equilibrate to room temperature for 30 minutes. […] Plates were incubated without shaking for a further 30 minutes and read on an LJL Analyst GT reader in luminometer mode with an integration time of 0.5 seconds per well. Percent inhibition of cell growth was calculated relative to DMSO vehicle-treated control wells.
structure (smiles),measurement,value
"CC(C)(C)c1nc(-c2cccc(NS(=O)(=O)c3cc(F)ccc3F)c2F)c(-c2ccnc(NCCN3CCCC3=O)n2)s1 [Example 97, N-{3-[2-(1,1-Dimethylethyl)-5-(2-{[2-(2-oxo-1-pyrrolidinyl)ethyl]amino}-4-pyrimidinyl)-1,3-thiazol-4-yl]-2-fluorophenyl}-2,5-difluorobenzenesulfonamide]",IC50,< 0.1 µM
